PubChem BioAssay AID743454, Peter MacCallum Cancer Centre | 2014

- Screen: 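Search for knock-downs that restore vorinostat killing in resistant colon cancer cells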 (primary screen)
- Cells: human HCT116-VR colon cancer cells, selected for vorinostat resistance
- Reagent: siRNA pool against human genes, 40 nM siRNA pool
- Timing: vorinostat for 24 h, read-out about 72 h after transfection
- Treatment: vorinostat at 2.5 µM final
- Read-out: 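Two measures, CellTiter-Fluor viability and luminescent caspase 3/7 activity, each as fold change against same-plate mock wells, mean of duplicates, then screen-wide robust z-score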
- Scale: viability robust z-score: higher = more viable cells than screen typical; caspase robust z-score: higher = more caspase 3/7 activity than screen typical
- Rule for the call: 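a knock-down is a hit when classed RV1 or RV2 for lowered viability, or CA1 or CA2 for caspase activation; those lethal without drug were dropped; hits were retested singly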
The deposit covers about 18,000 reagents; this is a random part of them. 450 of all reagents (2.5%) were called active. 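Single biological run; no consistent viability z cut-off exists, so the class columns, not z-scores, define the calls.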 Unmarked entries are inactive. No sequences are given here.

Target gene,viability hit class,caspase hit class,viability robust z-score,caspase robust z-score
SDF4,no change,no change,-0.62,2.15
PRICKLE3,no change,no change,1.33,2.08
NMUR2,no change,no change,-0.46,0.86
INPP5E,no change,no change,-0.23,1.34
HSPA2,no change,no change,-0.36,1.54
PRPF40B,no change,no change,-0.84,0.2
JAM2,no change,no change,-0.62,-1.09
LSS,no change,no change,0.48,-0.18
PDCD2L,no change,no change,-0.88,-0.41
